According to the supplement of paper PMC6411743:
± gives the standard deviation of the averaged measurements. This is one part of the list.

Tests used:
Assay in all cases: NP40-soluble protein abundance relative to vehicle (solubility fold change) (ratio); higher = more soluble protein in presence of GTP
[1] = molecular target: T1, UniProt Q8WYQ5 and related entries
T1 sequence (whole entry): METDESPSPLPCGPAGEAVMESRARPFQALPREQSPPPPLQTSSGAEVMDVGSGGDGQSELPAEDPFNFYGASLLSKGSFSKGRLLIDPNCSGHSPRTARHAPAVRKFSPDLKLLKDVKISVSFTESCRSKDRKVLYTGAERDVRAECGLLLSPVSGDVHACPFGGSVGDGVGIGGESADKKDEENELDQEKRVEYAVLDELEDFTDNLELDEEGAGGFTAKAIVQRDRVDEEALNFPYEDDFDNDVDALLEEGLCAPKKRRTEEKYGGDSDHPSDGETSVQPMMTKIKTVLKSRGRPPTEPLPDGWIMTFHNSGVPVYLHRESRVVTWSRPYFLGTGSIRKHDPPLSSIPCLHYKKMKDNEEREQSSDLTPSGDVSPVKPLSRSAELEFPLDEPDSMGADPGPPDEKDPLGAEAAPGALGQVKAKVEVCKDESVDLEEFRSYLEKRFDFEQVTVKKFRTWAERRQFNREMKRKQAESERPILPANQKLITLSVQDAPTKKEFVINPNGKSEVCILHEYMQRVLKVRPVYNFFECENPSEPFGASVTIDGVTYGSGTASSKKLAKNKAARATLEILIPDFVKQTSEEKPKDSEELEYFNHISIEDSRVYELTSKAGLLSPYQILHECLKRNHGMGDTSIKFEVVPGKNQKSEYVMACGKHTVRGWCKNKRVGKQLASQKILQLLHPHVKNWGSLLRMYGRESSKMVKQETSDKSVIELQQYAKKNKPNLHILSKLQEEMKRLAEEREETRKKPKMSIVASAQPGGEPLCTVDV
Summary of the method: (§1)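 Each value is a fold change relative to the detergent-processed vehicle, calculated per replicate from vsn-normalised intensities. Jurkat crude lysate received eight concentrations (0.1 to 10 mM) for 10 min at room temperature and 3 min at 37 °C, then was solubilised in 0.8% NP40 with benzonase (60 min, 4 °C). The ultracentrifuged supernatant was TMT-labelled and run by LC-MS/MS in three independent experiments.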

[2] = molecular target: T2, UniProt Q92796-3|Q5JUW8 and related entries
T2 sequence (whole entry): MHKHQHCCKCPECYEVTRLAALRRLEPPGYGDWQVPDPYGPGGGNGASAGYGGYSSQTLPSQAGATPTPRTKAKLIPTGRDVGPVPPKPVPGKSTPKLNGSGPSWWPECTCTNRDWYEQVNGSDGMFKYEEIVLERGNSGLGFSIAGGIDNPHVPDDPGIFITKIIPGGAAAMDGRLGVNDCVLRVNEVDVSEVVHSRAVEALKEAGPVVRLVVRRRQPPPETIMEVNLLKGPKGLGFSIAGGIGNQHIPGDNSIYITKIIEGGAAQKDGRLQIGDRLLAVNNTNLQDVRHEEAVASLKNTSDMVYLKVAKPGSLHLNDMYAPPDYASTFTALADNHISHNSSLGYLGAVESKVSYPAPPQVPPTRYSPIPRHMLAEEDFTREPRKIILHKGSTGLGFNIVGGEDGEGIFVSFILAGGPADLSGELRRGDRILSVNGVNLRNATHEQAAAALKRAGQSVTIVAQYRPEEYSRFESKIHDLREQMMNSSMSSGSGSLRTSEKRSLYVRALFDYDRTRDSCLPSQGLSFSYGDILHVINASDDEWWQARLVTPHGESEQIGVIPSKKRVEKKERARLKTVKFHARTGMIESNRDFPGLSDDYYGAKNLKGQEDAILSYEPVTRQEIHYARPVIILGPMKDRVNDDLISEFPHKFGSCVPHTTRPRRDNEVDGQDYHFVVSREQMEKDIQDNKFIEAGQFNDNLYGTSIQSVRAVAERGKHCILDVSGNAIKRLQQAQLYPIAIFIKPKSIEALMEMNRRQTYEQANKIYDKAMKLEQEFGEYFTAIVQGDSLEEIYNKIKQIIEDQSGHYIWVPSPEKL
Summary of the method: as §1

[3] = molecular target: T3, UniProt Q92851 and related entries
T3 sequence (whole entry): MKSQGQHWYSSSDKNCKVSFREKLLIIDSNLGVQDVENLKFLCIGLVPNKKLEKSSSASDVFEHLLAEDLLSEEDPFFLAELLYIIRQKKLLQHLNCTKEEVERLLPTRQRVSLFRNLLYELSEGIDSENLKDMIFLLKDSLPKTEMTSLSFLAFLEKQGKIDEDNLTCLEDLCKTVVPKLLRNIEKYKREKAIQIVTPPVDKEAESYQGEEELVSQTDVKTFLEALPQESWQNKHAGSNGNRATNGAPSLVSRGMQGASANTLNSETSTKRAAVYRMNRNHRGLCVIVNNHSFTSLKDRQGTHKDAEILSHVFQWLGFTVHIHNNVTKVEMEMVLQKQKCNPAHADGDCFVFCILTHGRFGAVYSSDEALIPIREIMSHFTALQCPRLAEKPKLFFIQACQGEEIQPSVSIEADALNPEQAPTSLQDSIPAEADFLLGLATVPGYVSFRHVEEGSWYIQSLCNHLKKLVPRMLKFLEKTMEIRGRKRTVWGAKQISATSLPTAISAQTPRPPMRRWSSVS
Summary of the method: as §1

[4] = molecular target: T4, UniProt Q969V3 and related entries
T4 sequence (whole entry): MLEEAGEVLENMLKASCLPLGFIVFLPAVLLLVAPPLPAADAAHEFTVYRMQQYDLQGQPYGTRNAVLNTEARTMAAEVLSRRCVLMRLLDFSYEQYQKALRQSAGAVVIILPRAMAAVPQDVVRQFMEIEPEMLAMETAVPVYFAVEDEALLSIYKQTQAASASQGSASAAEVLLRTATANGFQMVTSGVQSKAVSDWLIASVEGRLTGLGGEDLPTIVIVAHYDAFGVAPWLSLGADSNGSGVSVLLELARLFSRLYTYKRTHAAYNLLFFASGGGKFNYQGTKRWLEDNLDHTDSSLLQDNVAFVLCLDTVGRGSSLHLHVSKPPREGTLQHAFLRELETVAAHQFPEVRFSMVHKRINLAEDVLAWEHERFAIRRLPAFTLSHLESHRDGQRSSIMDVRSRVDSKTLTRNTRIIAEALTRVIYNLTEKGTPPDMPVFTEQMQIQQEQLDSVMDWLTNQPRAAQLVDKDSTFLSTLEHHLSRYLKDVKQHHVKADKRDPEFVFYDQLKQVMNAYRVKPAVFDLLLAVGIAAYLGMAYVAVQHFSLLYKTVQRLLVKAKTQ
Summary of the method: as §1

[5] = molecular target: T5, UniProt Q96AQ8 and related entries
T5 sequence (whole entry): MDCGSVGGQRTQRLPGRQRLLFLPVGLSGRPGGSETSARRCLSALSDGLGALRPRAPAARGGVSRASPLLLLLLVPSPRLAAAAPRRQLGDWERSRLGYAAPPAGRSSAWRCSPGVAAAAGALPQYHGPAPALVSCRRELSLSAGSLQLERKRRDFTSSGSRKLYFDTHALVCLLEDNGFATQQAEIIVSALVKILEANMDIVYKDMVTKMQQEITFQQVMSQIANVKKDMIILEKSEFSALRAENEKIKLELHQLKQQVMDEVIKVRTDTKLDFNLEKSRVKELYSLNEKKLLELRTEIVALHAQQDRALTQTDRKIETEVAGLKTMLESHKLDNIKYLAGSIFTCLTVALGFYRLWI
Summary of the method: as §1

[6] = molecular target: T6, UniProt Q96AX2 and related entries
T6 sequence (whole entry): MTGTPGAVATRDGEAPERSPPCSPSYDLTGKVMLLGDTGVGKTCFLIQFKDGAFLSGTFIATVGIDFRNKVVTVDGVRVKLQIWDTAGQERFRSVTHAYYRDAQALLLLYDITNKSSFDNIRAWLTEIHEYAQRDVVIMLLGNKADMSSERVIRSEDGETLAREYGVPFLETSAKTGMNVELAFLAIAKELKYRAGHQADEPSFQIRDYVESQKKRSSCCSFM
Summary of the method: as §1

Nc1nc2c(ncn2[C@@H]2O[C@H](COP(=O)(O)OP(=O)(O)OP(=O)(O)O)[C@@H](O)[C@H]2O)c(=O)[nH]1 [guanosine triphosphate]
NP40-soluble protein abundance ([1]; concentration: 4mM): 1.13 ± 0.037
NP40-soluble protein abundance ([1]; concentration: 6mM): 1.19 ± 0.05
NP40-soluble protein abundance ([1]; concentration: 8mM): 1.24 ± 0.1
NP40-soluble protein abundance ([1]; concentration: 10mM): 1.19 ± 0.066
NP40-soluble protein abundance ([2]; concentration: 0.1mM): 1.15 ± 0.034
NP40-soluble protein abundance ([2]; concentration: 0.5mM): 1.17 ± 0.023
NP40-soluble protein abundance ([2]; concentration: 1mM): 1.17 ± 0.037
NP40-soluble protein abundance ([2]; concentration: 2mM): 1.17 ± 0.038
NP40-soluble protein abundance ([2]; concentration: 4mM): 1.13 ± 0.03
NP40-soluble protein abundance ([2]; concentration: 6mM): 1.12 ± 0.07
NP40-soluble protein abundance ([2]; concentration: 8mM): 1.18 ± 0.018
NP40-soluble protein abundance ([2]; concentration: 10mM): 1.14 ± 0.037
NP40-soluble protein abundance ([3]; concentration: 0.1mM): 1.06 ± 0.045
NP40-soluble protein abundance ([3]; concentration: 0.5mM): 1.04 ± 0.016
NP40-soluble protein abundance ([3]; concentration: 1mM): 1 ± 0.058
NP40-soluble protein abundance ([3]; concentration: 2mM): 0.99 ± 0.054
NP40-soluble protein abundance ([3]; concentration: 4mM): 0.994 ± 0.097
NP40-soluble protein abundance ([3]; concentration: 6mM): 0.951 ± 0.075
NP40-soluble protein abundance ([3]; concentration: 8mM): 0.915 ± 0.06
NP40-soluble protein abundance ([3]; concentration: 10mM): 0.884 ± 0.085
NP40-soluble protein abundance ([4]; concentration: 0.1mM): 1.08 ± 0.019
NP40-soluble protein abundance ([4]; concentration: 0.5mM): 1.03 ± 0.032
NP40-soluble protein abundance ([4]; concentration: 1mM): 0.972 ± 0.013
NP40-soluble protein abundance ([4]; concentration: 2mM): 0.981 ± 0.044
NP40-soluble protein abundance ([4]; concentration: 4mM): 1 ± 0.023
NP40-soluble protein abundance ([4]; concentration: 6mM): 0.9519 ± 0.0095
NP40-soluble protein abundance ([4]; concentration: 8mM): 0.955 ± 0.046
NP40-soluble protein abundance ([4]; concentration: 10mM): 0.936 ± 0.056
NP40-soluble protein abundance ([5]; concentration: 0.1mM): 0.9131 ± 0.0083
NP40-soluble protein abundance ([5]; concentration: 0.5mM): 0.922 ± 0.028
NP40-soluble protein abundance ([5]; concentration: 1mM): 0.945 ± 0.053
NP40-soluble protein abundance ([5]; concentration: 2mM): 0.947 ± 0.071
NP40-soluble protein abundance ([5]; concentration: 4mM): 0.918 ± 0.089
NP40-soluble protein abundance ([5]; concentration: 6mM): 0.924 ± 0.042
NP40-soluble protein abundance ([5]; concentration: 8mM): 0.848 ± 0.13
NP40-soluble protein abundance ([5]; concentration: 10mM): 0.902 ± 0.044
NP40-soluble protein abundance ([6]; concentration: 0.1mM): 1.04 ± 0.043
NP40-soluble protein abundance ([6]; concentration: 0.5mM): 1.03 ± 0.064
NP40-soluble protein abundance ([6]; concentration: 1mM): 0.946 ± 0.1
NP40-soluble protein abundance ([6]; concentration: 2mM): 1 ± 0.12
NP40-soluble protein abundance ([6]; concentration: 4mM): 0.956 ± 0.13
NP40-soluble protein abundance ([6]; concentration: 6mM): 0.921 ± 0.085
